Over roughly 33,000 sequences, “E-score (-0.5 to 0.5)” has its median near -8e-05; the highest 2% begin near 0.23. Some of the results follow.
The sequences below were run against T1, Nrg2 (UniProt P38082) (assay: PBM E-score (8-mer binding enrichment) (E-score (-0.5 to 0.5)); higher = stronger / more preferred TF binding). Conditions: protein concentration: 100 nM; construct: GST-full length.
T1 sequence: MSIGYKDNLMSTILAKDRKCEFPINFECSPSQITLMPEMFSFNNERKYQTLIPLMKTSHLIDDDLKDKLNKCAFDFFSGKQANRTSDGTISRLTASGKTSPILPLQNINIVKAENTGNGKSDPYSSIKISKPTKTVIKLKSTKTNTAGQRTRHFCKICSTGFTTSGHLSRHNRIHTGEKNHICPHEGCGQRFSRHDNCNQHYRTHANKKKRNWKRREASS
Protocol: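 Universal 'all 10-mer' protein binding microarrays (Agilent AMADID 015681) probed with GST-tagged S. cerevisiae TFs (full-length or DBD) made by in vitro transcription/translation (PURExpress), about 100-200 nM. Bound TF was detected with fluorescent anti-GST. Each ungapped 8-mer (which stands for itself and its reverse complement) is scored by the PBM enrichment score (E-score), a modified Wilcoxon-Mann-Whitney statistic from -0.5 to +0.5, computed with the Universal PBM Analysis Suite. Scale: above 0.35 generally sequence-specific binding.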

Row | Sequence | PBM E-score
1 | CGGTTAGC | -0.25
2 | GGGACAAC | 0.0721
3 | CGTTAATA | 0.11
4 | ATTAAGTA | -0.0327
5 | GGGAAAAC | -0.00151
6 | GCCGGCCC | 0.00556
7 | GACTGTCC | -0.0567
8 | CAAGCTTA | 0.048
9 | TATGACAA | 0.071
10 | CAATCAGG | -0.0411
11 | ATTGCAAA | 0.127
12 | CGTAAGTC | -0.0277
13 | ACCATTCG | -0.135
14 | ATTTGTTG | 0.137
15 | AGGCAAAG | -0.0784
16 | AATGGAGA | -0.105
17 | ACTAGTCT | -0.105
18 | CGGTAGGA | -0.0892
19 | GCCGCCGA | 0.19
20 | ATTCACGA | 0.0517
21 | AGGGATAA | 0.0739
22 | GACCCTGC | 0.331
23 | TACAAGTA | -0.0759
24 | GCACCGGC | 0.0655
25 | AGGGCGTA | 0.00226

Row | Sequence | PBM E-score
26 | CGTGCCGA | 0.0149
27 | ATCCTACG | -0.0483
28 | ATAATCCA | 0.128
29 | ATAGGGAG | -0.184
30 | CCCACTTC | 0.0212
31 | ATATCCAG | 0.211
32 | GGGTACGA | 0.0582
33 | ATCTACAT | 0.148
34 | TAAACATA | 0.127
35 | AAACATAA | 0.141
36 | CCGGTCGA | -0.157
37 | GATGTTCA | -0.165
38 | ACAAGTTG | 0.0622
39 | GACGGTCC | -0.0844
40 | CAACGGGC | 0.0722
41 | CCGGAGCG | -0.267
42 | AAATTTAG | 0.106
43 | GCCAACGA | -0.0525
44 | AACAAACA | 0.22
45 | CCTGCGTC | -0.15
46 | CTGTTATA | 0.00374
47 | AAGCTATT | -0.162
48 | ACGACGAG | -0.0415
49 | GATTGTAA | 0.00034
50 | CAACTTAG | 0.221

Row | Sequence | PBM E-score
51 | AAACGGAG | -0.00761
52 | CCGAAGTC | 0.0152
53 | CTACGCCA | -0.213
54 | GCACACCC | -0.193
55 | ACTACGCT | -0.0872
56 | TCAGGGCA | 0.225
57 | TGCATCCA | 0.0033
58 | TCTGTTAA | -0.053
59 | AGCACGCA | -0.154
60 | ACATGAGA | 0.0387
61 | ATTAGAAC | 0.121
62 | AAACCCCT | -0.0764
63 | ACGGGTTG | -0.159
64 | GGTAAGCA | 0.0126
65 | ATGGGCGC | -0.0707
66 | AAGCTGCA | 0.0133
67 | AAGGTGAG | -0.109
68 | AAGCCTCT | -0.249
69 | CAAATTGA | 0.133
70 | TACGAACA | 0.0119
71 | CAACCTCA | -0.0281
72 | GCCCTTGA | -0.00607
73 | CTACTGCC | -0.0361
74 | CGGAAGAA | -0.0893
75 | TAGATGAA | -0.101

Row | Sequence | PBM E-score
76 | CCCGCAAC | 0.154
77 | GAGGCTAA | -0.0922
78 | CGGCAGGA | -0.173
79 | AAAAACTG | -0.178
80 | CGGTGGCC | 0.0203
81 | ACGCTAGT | -0.0728
82 | TACGACTA | 0.0667
83 | ATCTATTG | 0.00621
84 | GCCACTTA | -0.0989
85 | GGGAATGA | 0.155
86 | GAGGTGCC | -0.0447
87 | AGACGCGG | 0.0784
88 | CCCCACTA | -0.0992
89 | CAGCATAC | -0.0945
90 | GCGCGACA | 0.00371
91 | GCACCAAC | -0.0953
92 | CAGAGCTC | -0.145
93 | ACGGTTCA | -0.207
94 | GAGTTACC | 0.0711
95 | GAACCGTC | -0.104
96 | AGAGATCT | -0.146
97 | AGGCACAA | -0.132
98 | ACGGGCTC | -0.324
99 | ACAACGCG | 0.12
100 | GAGCTCGC | 0.112

Row | Sequence | PBM E-score
101 | CGATCCTA | 0.00763
102 | AGGGAACC | 0.0118
103 | GAGTGTAA | -0.187
104 | CCAGTATC | 0.0432
105 | AAGGAAAA | 0.0535
106 | AGGGCAAT | 0.0232
107 | AAGGCGGC | -0.14
108 | AGGGTAAA | 0.172
109 | CCAATCAA | 0.0436
110 | AACATATG | -0.124
111 | AACTTAAT | 0.164
112 | ACATAGTA | 0.0458
113 | CCTTGAGA | 0.094
114 | CTATGCGA | -0.069
115 | ATAATCAT | 0.235
116 | CATGACCA | 0.0185
117 | ACCAGATC | -0.0731
118 | GGCTAGCA | -0.166
119 | CCCGTGCG | 0.122
120 | ACCTACCT | -0.0889
121 | ATGACGCC | -0.122
122 | AAATATGA | 0.155
123 | ATCGAACG | 0.0718
124 | ACATCTGC | -0.051
125 | CTGAGGAC | -0.0637

Retrieved one by one from the entries so far, five records:
Row | Sequence | PBM E-score
109 | CCAATCAA | 0.0436
41 | CCGGAGCG | -0.267
63 | ACGGGTTG | -0.159
114 | CTATGCGA | -0.069
116 | CATGACCA | 0.0185

The results go on:

Row | Sequence | PBM E-score
126 | GGTGTCGA | 0.0796
127 | GCGCAGTA | 0.13
128 | CATAATCC | 0.171
129 | AGAACAGG | -0.122
130 | TTGTTAAA | -0.126
131 | CTTGCCCC | 0
132 | ATATCTTC | 0.165
133 | GAATGGGA | -0.0567
134 | GATCGTCC | 0.0378
135 | ACTACGTC | -0.0921
136 | CCGAATTA | -0.00177
137 | CACGGTTC | -0.0806
138 | AAGCACCC | -0.135
139 | ATACTTTC | 0.0743
140 | GCCACGAA | -0.0816
141 | ACTCTGTC | 0.0724
142 | CTTGATAA | 0.147
143 | GTCAGCAC | -0.0154
144 | CGCTCGCA | 0.1
145 | AAAACAGA | 0.00615
146 | ATATGTCC | 0.0603
147 | ACCCCCAT | -0.247
148 | CGTGGGAG | -0.18
149 | CCGAACCC | -0.102
150 | CCGCACTA | 0.124

Row | Sequence | PBM E-score
151 | CTTCCTAA | -0.0499
152 | TAATCCAA | 0.0765
153 | CCCGAGTA | 0.162
154 | ACTCGAAG | -0.101
155 | CCCTCTCA | -0.212
156 | CCCCAAAC | -0.0816
157 | AACGGACC | -0.0404
158 | ACCGAGAG | 0.0959
159 | GCCGCTTA | -0.00941
160 | GGGCGTGA | 0.0253
161 | CCGAAGAG | -0.104
162 | GTCGACAA | 0.0206
163 | TATACAAA | 0.148
164 | ACAAGTTC | 0.0761
165 | CCAATGAG | 0.0612
166 | AGCTGTCG | -0.197
167 | CTGACGGC | -0.125
168 | AATTACGC | 0.0258
169 | AGGCAAAA | 0.16
170 | ATCACAGA | 0.0396
171 | AGCCAGAT | -0.0992
172 | GGAACTAA | 0.0607

— the supplement of paper PMC3334620
